# This is one part of the list. Repeats are few or missing, and single values can be far off.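 Imaging used 1,536-well plates; nuclei positive for cleaved PARP by antibody were divided by total DNA-stained nuclei to yield the apoptosis fraction. Doses for screening kept most cells viable, and cell lines differ markedly in resting and induced cleaved-PARP levels.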
# Legend:
# Experiment in all cases: cleaved PARP positive nuclei fraction relative to DMSO control; melanoma cells; higher = more apoptosis
# Details in all cases: library dose: low library concentration; 72 h
# [1] = test system: WM115
# [2] = test system: WM1716
# [3] = test system: WM1745
# [4] = test system: WM3526
# [5] = test system: WM3619
# [6] = test system: WM451Lu
SMILES,cleaved PARP positive nuclei fraction [1],cleaved PARP positive nuclei fraction [2],cleaved PARP positive nuclei fraction [3],cleaved PARP positive nuclei fraction [4],cleaved PARP positive nuclei fraction [5],cleaved PARP positive nuclei fraction [6]
"CCCCCCCCc1ccc(CCC(N)(CO)CO)cc1 [fingolimod] + C[As](C)SC[C@H](NC(=O)CC[C@H](N)C(=O)O)C(=O)NCC(=O)O [Darinaparsin] (first compound 2 µM, partner dose 0.4 µM)",20.1%,124%,144%,96.5%,170%,40.5%
"C=C(c1ccc(C(=O)O)cc1)c1cc2c(cc1C)C(C)(C)CCC2(C)C [Bexarotene] + O=C(Oc1ccc([N+](=O)[O-])cc1)N1CCC(C(O)(c2ccc3c(c2)OCO3)c2ccc3c(c2)OCO3)CC1 [JZL184] (first compound 2 µM, partner dose 1 µM)",107%,96.1%,85.5%,99.6%,95.1%,232%
"CC(C)C[C@H](NC(=O)[C@H](Cc1ccccc1)NC(=O)c1cnccn1)B(O)O [Bortezomib] + Cc1cc(SCc2sc(-c3ccc(C(F)(F)F)c(F)c3)nc2C)ccc1OCC(=O)O [GW0742] (first compound 0.001 µM, partner dose 2 µM)",59.3%,758%,109%,326%,477%,72.9%
"C[As](C)SC[C@H](NC(=O)CC[C@H](N)C(=O)O)C(=O)NCC(=O)O [Darinaparsin] + Cc1cc([N+](=O)[O-])ccc1NS(=O)(=O)c1cc(Cl)ccc1Cl [FH535] (first compound 0.4 µM, partner dose 1 µM)",141%,58.3%,109%,152%,91%,114%
"C[As](C)SC[C@H](NC(=O)CC[C@H](N)C(=O)O)C(=O)NCC(=O)O [Darinaparsin] + CCCCCCCCCCCC1=C(O)C(=O)C=C(O)C1=O [Embelin] (first compound 0.4 µM, partner dose 1.2 µM)",74%,50%,103%,67.4%,82.2%,26.4%
"C[C@@H](N)c1ccc(C(=O)Nc2ccnc3[nH]ccc23)cc1 + Cn1cc(C2=C(c3cn(C4CCN(Cc5ccccn5)CC4)c4ccccc34)C(=O)NC2=O)c2ccccc21 [Enzastaurin] (first compound 0.4 µM, partner dose 0.8 µM)",45.7%,42.6%,105%,47.6%,90.7%,45.8%
"C#Cc1cccc(Nc2ncnc3cc(OCCOC)c(OCCOC)cc23)c1 [erlotinib] + Cc1cc(SCc2sc(-c3ccc(C(F)(F)F)c(F)c3)nc2C)ccc1OCC(=O)O [GW0742] (first compound 0.8 µM, partner dose 2 µM)",103%,151%,256%,64.3%,104%,54.5%
"O=C(Oc1ccc([N+](=O)[O-])cc1)N1CCC(C(O)(c2ccc3c(c2)OCO3)c2ccc3c(c2)OCO3)CC1 + CCCCCCCCCCCC1=C(O)C(=O)C=C(O)C1=O [Embelin] (first compound 1 µM, partner dose 1.2 µM)",64.6%,177%,94.2%,153%,94.9%,108%
"COc1ccc(COc2ccc(Cc3cnc(N)nc3N)cc2OC)cc1 + O=C(Oc1ccc([N+](=O)[O-])cc1)N1CCC(C(O)(c2ccc3c(c2)OCO3)c2ccc3c(c2)OCO3)CC1 [JZL184] (first compound 1 µM, partner dose 1 µM)",167%,104%,94.7%,73%,68.3%,127%
"COc1cc2ncnc(Nc3ccc(Oc4ccccc4)cc3)c2cc1OC + O=C(Oc1ccc([N+](=O)[O-])cc1)N1CCC(C(O)(c2ccc3c(c2)OCO3)c2ccc3c(c2)OCO3)CC1 [JZL184] (first compound 2 µM, partner dose 1 µM)",64.7%,54.3%,104%,68.3%,84.1%,25.7%
"CO[C@@H]1[C@H](N(C)C(=O)c2ccccc2)C[C@H]2O[C@]1(C)n1c3ccccc3c3c4c(c5c6ccccc6n2c5c31)C(=O)NC4 [Midostaurin] + O=C(Oc1ccc([N+](=O)[O-])cc1)N1CCC(C(O)(c2ccc3c(c2)OCO3)c2ccc3c(c2)OCO3)CC1 [JZL184] (first compound 0.08 µM, partner dose 1 µM)",90.5%,79.1%,95.7%,60.5%,106%,128%
"C[C@]12O[C@H](C[C@]1(O)CO)n1c3ccccc3c3c4c(c5c6ccccc6n2c5c31)CNC4=O [Lestaurtinib] + OCc1c[nH]c2ccccc12 [Indole-3-carbinol] (first compound 0.004 µM, partner dose 0.8 µM)",96.4%,475%,86%,154%,71.1%,96.6%
"O=C(Nc1cc(C(F)(F)F)cc(C(F)(F)F)c1)c1cc(Cl)ccc1O + Cc1cc(SCc2sc(-c3ccc(C(F)(F)F)c(F)c3)nc2C)ccc1OCC(=O)O [GW0742] (first compound 0.016 µM, partner dose 2 µM)",164%,94.3%,92.3%,78.3%,196%,113%
"CCCCCCCCc1ccc(CCC(N)(CO)CO)cc1 [fingolimod] + Cc1cc(SCc2sc(-c3ccc(C(F)(F)F)c(F)c3)nc2C)ccc1OCC(=O)O [GW0742] (first compound 2 µM, partner dose 2 µM)",124%,161%,124%,142%,122%,170%
"CCN(CC)CCCCNc1ncc2cc(-c3cc(OC)cc(OC)c3)c(NC(=O)NC(C)(C)C)nc2n1 + O=C(Oc1ccc([N+](=O)[O-])cc1)N1CCC(C(O)(c2ccc3c(c2)OCO3)c2ccc3c(c2)OCO3)CC1 [JZL184] (first compound 0.1 µM, partner dose 1 µM)",85.5%,90.4%,91.7%,69.9%,93.7%,89.5%
"C[C@]12O[C@H](C[C@]1(O)CO)n1c3ccccc3c3c4c(c5c6ccccc6n2c5c31)CNC4=O [Lestaurtinib] + COc1ccc2c(c1)CCC1C2CCC2(C)C(NCCCCCCN3C(=O)C=CC3=O)CCC12 [U73122] (first compound 0.004 µM, partner dose 0.4 µM)",102%,210%,92.4%,70.1%,114%,32.1%
"C[As](C)SC[C@H](NC(=O)CC[C@H](N)C(=O)O)C(=O)NCC(=O)O [Darinaparsin] + COc1cc2c(Oc3ccc4[nH]c(C)cc4c3F)ncnc2cc1OCCCN1CCCC1 [cediranib] (first compound 0.4 µM, partner dose 0.4 µM)",215%,90.6%,96.6%,51.7%,81.1%,55.1%
"Cn1nnc2c(C(N)=O)ncn2c1=O [temozolomide] + O=C(Oc1ccc([N+](=O)[O-])cc1)N1CCC(C(O)(c2ccc3c(c2)OCO3)c2ccc3c(c2)OCO3)CC1 [JZL184] (first compound 2 µM, partner dose 1 µM)",171%,107%,128%,184%,93.7%,80.4%
"COc1ccc(C2=N[C@@H](c3ccc(Cl)cc3)[C@@H](c3ccc(Cl)cc3)N2C(=O)N2CCNC(=O)C2)c(OC(C)C)c1 [Nutlin-3] + C[C@]12O[C@H](C[C@]1(O)CO)n1c3ccccc3c3c4c(c5c6ccccc6n2c5c31)CNC4=O [Lestaurtinib] (first compound 0.1 µM, partner dose 0.004 µM)",87.2%,135%,104%,104%,98.6%,119%
"Cn1cc(C2=C(c3cn(C4CCN(Cc5ccccn5)CC4)c4ccccc34)C(=O)NC2=O)c2ccccc21 [Enzastaurin] + NCC(=O)Nc1ccc(-n2nc(C(F)(F)F)cc2-c2ccc3c(ccc4ccccc43)c2)cc1 [OSU03012] (first compound 0.8 µM, partner dose 1 µM)",153%,47%,103%,88.3%,89%,58.5%
"N.N.[Cl][Pt][Cl] [cisplatin] + Cn1cc(/C=C2\C(=O)Nc3cccnc32)c2ccccc21 [GW441756] (first compound 1.6 µM, partner dose 0.4 µM)",244%,123%,89.9%,183%,115%,133%
"Cn1sc(=O)n(Cc2ccccc2)c1=O + C[As](C)SC[C@H](NC(=O)CC[C@H](N)C(=O)O)C(=O)NCC(=O)O [Darinaparsin] (first compound 0.4 µM, partner dose 0.4 µM)",103%,37.9%,100%,23.5%,107%,93.8%
"Cn1c(=O)n(-c2ccc(C(C)(C)C#N)cc2)c2c3cc(-c4cnc5ccccc5c4)ccc3ncc21 + C[As](C)SC[C@H](NC(=O)CC[C@H](N)C(=O)O)C(=O)NCC(=O)O [Darinaparsin] (first compound 0.004 µM, partner dose 0.4 µM)",165%,91.8%,87.8%,64.5%,99.2%,58.5%
"C[As](C)SC[C@H](NC(=O)CC[C@H](N)C(=O)O)C(=O)NCC(=O)O [Darinaparsin] + O=C(Oc1ccc([N+](=O)[O-])cc1)N1CCC(C(O)(c2ccc3c(c2)OCO3)c2ccc3c(c2)OCO3)CC1 [JZL184] (first compound 0.4 µM, partner dose 1 µM)",104%,92%,115%,83.2%,81.9%,206%

# Exported as tab-separated lines: entries from further up.
SMILES	cleaved PARP positive nuclei fraction [1]	cleaved PARP positive nuclei fraction [2]	cleaved PARP positive nuclei fraction [3]	cleaved PARP positive nuclei fraction [4]	cleaved PARP positive nuclei fraction [5]	cleaved PARP positive nuclei fraction [6]
CCCCCCCCc1ccc(CCC(N)(CO)CO)cc1 [fingolimod] + C[As](C)SC[C@H](NC(=O)CC[C@H](N)C(=O)O)C(=O)NCC(=O)O [Darinaparsin] (first compound 2 µM, partner dose 0.4 µM)	20.1%	124%	144%	96.5%	170%	40.5%
C=C(c1ccc(C(=O)O)cc1)c1cc2c(cc1C)C(C)(C)CCC2(C)C [Bexarotene] + O=C(Oc1ccc([N+](=O)[O-])cc1)N1CCC(C(O)(c2ccc3c(c2)OCO3)c2ccc3c(c2)OCO3)CC1 [JZL184] (first compound 2 µM, partner dose 1 µM)	107%	96.1%	85.5%	99.6%	95.1%	232%

# Reference: the supplement of paper PMC4604168 (melanoma cell lines)
